Test results published in PubChem BioAssay AID540256 (National Center for Advancing Translational Sciences (NCATS), 2011).
In all, about 300,000 compounds went through this assay and about 3,700 (1.2%) were called active. Inconclusive results, whose numbers are uncertain, are shown with a selection of clear calls. The call rests on the fitted dose curve; tested in HEK293 cells. Potencies beside an inconclusive call are fits to weak or partial responses and may not hold up.

assay: qHTS for Inhibitors of binding or entry into cells for Lassa Virus; details: Lassa virus pseudotype entry inhibition, cell reporter; series mostly up to 37.9 µM; further: nearly all actives have a fitted effect of over 50% in size
Potency means the concentration at half of the fitted maximal effect.

| Compound | Potency |
| --- | --- |
| COC(=O)C(CC(=O)c1ccc(Cl)cc1)c1ccccc1 (stereo not given) | inconclusive: 3.55 µM [activator, single point] |
| O=C(C1CCN(S(=O)(=O)c2ccccc2)CC1)N1CCN(Cc2ccccc2)CC1 | inactive |
| O=C(Nc1ccc(Cl)c(Cl)c1)N1N=CCC1c1ccccc1 (stereo not given) | inconclusive: 12.6 µM [inhibitor, partial curve, poor fit] |
| Cc1ccc(CN2C(=O)c3ccccc3C2C(=O)NC2CCCCCC2)cc1 (stereo not given) | inconclusive: 2.82 µM [inhibitor, full curve] |
| CCOC(=O)C1=C(C)Nc2ncnn2C1c1cc(Br)ccc1F (stereo not given) | inconclusive: 8.91 µM [inhibitor, partial curve, poor fit] |
| Cc1noc(NS(=O)(=O)c2ccc(N/C=C\C(=O)c3ccncc3)cc2)c1C | inactive |
| Cc1ccc(-c2nnc(-c3ccccc3)c(-c3ccccc3)n2)cc1 | inactive |
| O=C(NC(=S)Nc1ccc(N2CCOCC2)cc1)c1ccc(Cl)cc1 | inactive |
| O=[N+]([O-])c1ccc(C[n+]2cccc3ccccc32)cc1 | inactive |
| CCOC(=O)c1ccc(OCC2c3cc(OC)c(OC)cc3CCN2C(=O)Cc2ccc(F)cc2)cc1 (stereo not given) | inconclusive: 3.98 µM [inhibitor, full curve, poor fit] |
| COc1ccc(CCNC(=O)C2CCCN(c3nn4c(=O)cc(C)nc4s3)C2)cc1OC (stereo not given) | inconclusive: 1.26 µM [activator, single point] |
| CCCCOC(=O)NS(=O)(=O)c1sc(CC(C)C)cc1-c1ccc(Cn2c(CC)nc3c(C)cc(C)nc32)cc1 | active: 9.2 µM |
| Cc1ccc(NC(=O)c2c(Nc3ccccc3C)sc(C(=O)c3ccccc3)c2N)cc1 | inconclusive: 17.8 µM [inhibitor, single point] |
| C/C(CC(=O)Nc1ccc(Cl)c(C(F)(F)F)c1)=N\NC(=O)c1cc2ccccc2cc1O | inconclusive: 35.5 µM [inhibitor, single point] |
| O=C1c2ccccc2C(=O)N1OCc1ccccc1[N+](=O)[O-] | inactive |
| Cc1sc2nc(SCc3ccccc3)n(Cc3ccco3)c(=O)c2c1C | inconclusive: 29.1 µM [inhibitor, single point] |
| COC(=O)c1sccc1NC(=O)CC1C(=O)NCCN1C(=O)c1ccc(C)c(C)c1 (stereo not given) | inactive |
| COc1ccc(CN(CCC(c2ccc3c(c2)OCO3)c2ccccc2OC)C(C)=O)cc1 (stereo not given) | inconclusive: 35.5 µM [inhibitor, single point] |
| CC1CN(/C=C/C=O)C(C)CC1OC(=O)c1ccccc1 (stereo not given) | inconclusive: 0.891 µM [inhibitor, single point] |
| CCN(CC)CC(=O)c1c[nH]c2ccc(OC)cc12 | inconclusive: 1 µM [activator, full curve, poor fit] |
| Cn1nnnc1SCC(=O)NC1CCCc2ccccc21 (stereo not given) | inconclusive: 1.26 µM [inhibitor, single point] |
| O=S(=O)(/C=C/c1ccccc1)N1CCN(c2nc(-c3cccnc3)nc3ccccc23)CC1 | inconclusive: 11.2 µM [inhibitor, single point] |
| CC(C)C(=O)NC(c1ccco1)c1ccc2cccnc2c1O (stereo not given) | inconclusive: 25.1 µM [inhibitor, single point] |
| Cc1ccc(C(=O)NCC(=O)OCc2c(F)cccc2Cl)s1 | inconclusive: 31.6 µM [activator, single point] |

Part of the list above, tab-delimited:
Compound	Potency
Cc1ccc(CN2C(=O)c3ccccc3C2C(=O)NC2CCCCCC2)cc1 (stereo not given)	inconclusive: 2.82 µM [inhibitor, full curve]
CCOC(=O)C1=C(C)Nc2ncnn2C1c1cc(Br)ccc1F (stereo not given)	inconclusive: 8.91 µM [inhibitor, partial curve, poor fit]
Cc1ccc(-c2nnc(-c3ccccc3)c(-c3ccccc3)n2)cc1	inactive
Cc1sc2nc(SCc3ccccc3)n(Cc3ccco3)c(=O)c2c1C	inconclusive: 29.1 µM [inhibitor, single point]
COC(=O)c1sccc1NC(=O)CC1C(=O)NCCN1C(=O)c1ccc(C)c(C)c1 (stereo not given)	inactive
Cn1nnnc1SCC(=O)NC1CCCc2ccccc21 (stereo not given)	inconclusive: 1.26 µM [inhibitor, single point]

Next part:

| Compound | Potency |
| --- | --- |
| Cc1ccc2nc(SCC(=O)c3cc(C)n(C)c3C)[nH]c2c1 | inactive |
| C/C(=N\NC(=O)c1cc(-c2ccc(O)cc2)nc2ccccc12)c1cccnc1 | inactive |
| O=C(c1ccco1)N1CCN(Cc2ccc(Cl)cc2)CC1 | inactive |
| Cc1ccc(NC(=S)NNC(=O)c2c(Cl)c(C)nn2C)cc1 | inconclusive: 12.6 µM [inhibitor, single point] |
| Cc1ccc(N2C(=O)CS(=O)(=O)C23C(=O)N(Cc2cccc(F)c2)c2ccccc23)cc1Cl (stereo not given) | inactive |
| C=CCc1cccc2cc(C(=O)NCc3cccnc3)c(=O)oc12 | inactive |
| CCC(C)c1ccccc1NC(=O)COC(=O)C1=COCCO1 (stereo not given) | inactive |
| Cc1cccc(NC(=O)c2sc3nc4n(c(=O)c3c2C)N=C(c2ccc(F)cc2)CS4)c1C | inactive |
| CCN(CCO)c1ccc(N=Cc2c(O)n(C)c(=S)[nH]c2=O)cc1 | inactive |
| COc1ccc(CN(C(=O)CN2C(=O)C(C)Oc3ccccc32)C2CCCC2)c(OC)c1 (stereo not given) | inconclusive: 11.6 µM [inhibitor, partial curve] |
| O=S(=O)(NCCc1ccccc1)c1ccc(N2CCCCS2(=O)=O)cc1 | inconclusive: 4.47 µM [inhibitor, full curve, poor fit] |
| CCSc1nc(=O)n(-c2ccccc2)c(C)c1C(C)=O | inactive |
| CCOc1ccccc1C1CC(=O)NC(SCC)=C1C#N (stereo not given) | inactive |
| Cc1cc2cc3c(cc2nc1SCC(=O)Nc1nc(C)c(C)s1)OCO3 | inconclusive: 4.61 µM [inhibitor, full curve, poor fit] |
| N#C/C(=C\c1c[nH]c2ccccc12)c1nnc2n1CCCCC2 | inactive |
| COc1ccc(CCn2c(N3CCN(Cc4ccccc4)CC3)nc3c2c(=O)[nH]c(=O)n3C)cc1 | inconclusive: 14.1 µM [inhibitor, partial curve] |
| C/C(=N\NC(=O)c1ccn(C)n1)c1cccc(NC(=O)c2ccncc2)c1 | inactive |
| COc1cccc(OC(=O)CSc2nnc(-c3ccccc3OC)o2)c1 | inactive |
| O=C(NCC1CCCN1S(=O)(=O)c1cccs1)c1ccc(F)c(F)c1 (stereo not given) | inconclusive: 5.01 µM [inhibitor, partial curve, poor fit] |
| O=C(CN1CCOCC1)Nc1nc2cc([N+](=O)[O-])ccc2s1 | inconclusive: 20.6 µM [activator, single point] |
| Cc1ccc(-c2nc(NC(=O)c3nn(C)cc3[N+](=O)[O-])sc2C)cc1C | active: 3.98 µM |
| Cc1ccc(N(CC(=O)N2CCCCC2)S(=O)(=O)c2ccc(C)cc2)cc1 | inconclusive: 10 µM [inhibitor, partial curve, poor fit] |
| Cc1ccc(NC(=O)CSc2nn(-c3ccc(Cl)cc3)c(=S)s2)cc1S(=O)(=O)N(C)C | active: 11.2 µM |
| CC(NC(=O)COc1ccccc1-c1ccccc1)c1ccccc1 (stereo not given) | active: 17.8 µM |

| Compound | Potency |
| --- | --- |
| COc1cccc(OC)c1C(=O)NC(=O)NNc1cc(C(F)(F)F)cc(C)n1 | inconclusive: 11.2 µM [activator, single point] |
| COc1ccc(NC(=O)CCCc2nc(-c3ccco3)no2)c(OC)c1 | inactive |
| O=C(N/N=C/c1ccncc1)c1ccccc1OCc1ccc(Br)cc1 | inconclusive: 0.291 µM [inhibitor, partial curve, poor fit] |
| Nc1ccc(-c2cnc(-c3ccc(N)cc3)nc2)cc1 | inconclusive: 20.6 µM [inhibitor, single point] |
| CCOc1ccccc1Nc1nnc(SCC(=O)N(C)C2CCS(=O)(=O)C2)s1 (stereo not given) | inconclusive: 35.5 µM [inhibitor, single point] |
| CCOC(=O)N1CCN(C(=S)NC(=O)c2c(-c3c(Cl)cccc3Cl)noc2C)CC1 | inconclusive: 8.91 µM [inhibitor, partial curve, poor fit] |
| COC(=O)c1ccc(C(=O)OC)c(NC(=O)CN2CCN(c3ccccc3OC)CC2)c1 | inconclusive: 16.4 µM [inhibitor, partial curve, poor fit] |
| COC(=O)Cn1c(=O)c2c(nc3n2CCN3c2cccc(C)c2)n(C)c1=O | inconclusive: 35.5 µM [inhibitor, single point] |
| Cc1ccccc1C(=O)N1CCN(c2nc(N3CCOCC3)nc(N3CCOCC3)n2)CC1 | inconclusive: 0.794 µM [inhibitor, partial curve, poor fit] |
| CC1Cc2ccccc2N1c1ncnc2nc[nH]c12 (stereo not given) | inconclusive: 32.6 µM [activator, single point] |
| O=C(CSc1nc2c(sc3ccccc32)c(=O)n1-c1ccccc1)NCc1ccco1 | inconclusive: 29.1 µM [inhibitor, single point] |
| CC(=O)N(c1ccccc1C)c1ccccc1C | inconclusive: 17.8 µM [activator, single point] |
| Cc1ccnc(NC(=O)CNC(=O)c2ccc(Br)o2)c1 | inactive |
| O=C(CSc1ncnc2scc(-c3ccccc3)c12)N1CCN(c2ccccc2F)CC1 | inconclusive: 35.5 µM [inhibitor, partial curve, poor fit] |
| Cc1ccc(Cn2ccnc2C(=O)Nc2ccccc2)cc1 | inconclusive: 35.5 µM [activator, single point] |
| CCn1nnc(-c2ccccc2NC(=O)c2ccc(-n3cnnn3)cc2)n1 | inconclusive: 0.651 µM [inhibitor, full curve, poor fit] |
| O=C(Nc1ccc2c(c1)CCC2)C1CCN(c2c3c(nc4ncnn24)CCC3)CC1 | inconclusive: 32.6 µM [inhibitor, single point] |
| CCOC(=O)N/N=C\C=C\c1ccc2c(c1)OCO2 | inconclusive: 6.51 µM [activator, partial curve, poor fit] |
| N#Cc1ccccc1NCc1ccccc1 | inconclusive: 1.41 µM [inhibitor, partial curve, poor fit] |
| Cc1cc(N2CCCCC2)n2ncc(-c3ccccc3)c2n1 | active: 4.47 µM |
| CCN(CC)c1ccc2c(Cl)c(Br)c(=O)oc2c1 | inconclusive: 23.1 µM [inhibitor, single point] |
| O=C(CSc1nnc(CNC(=O)C23CC4CC(CC(C4)C2)C3)n1-c1ccc(F)cc1)Nc1ccccc1 | inconclusive: 20 µM [inhibitor, single point] |
